These are yes or no findings as the source states them, for the method shown. Binding seen in cells or lysates may run through a third protein. Some binding calls cover weakened binding; strength is not graded here. Tags and fused reporters may be left off the sequences shown.
Biological target: bio-mCherry-UNC-119 (C. elegans) (UniProt Q10658)
Test: pull-down

Amino acid sequences for entries named in this document (tags omitted).
UniProt Q10658: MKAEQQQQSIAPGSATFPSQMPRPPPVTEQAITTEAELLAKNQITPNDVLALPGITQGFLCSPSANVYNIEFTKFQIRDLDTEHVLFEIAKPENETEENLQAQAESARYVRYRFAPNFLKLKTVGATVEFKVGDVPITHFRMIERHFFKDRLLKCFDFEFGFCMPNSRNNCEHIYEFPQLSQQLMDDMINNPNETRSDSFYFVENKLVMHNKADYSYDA

B1: UNC-33L::GFP (protein, UniProt Q01630 1-854)
chain: MFPFLAPIRSANHVEQQGTKYYVEITFLADSPYSRAPSSTGTEKSVIPTLRNLDDLETVSNKSRSSEGVNKLGSRPNSRSSAIVKKTSVSSLPTSARSEGKSSPIPVKDAIPAPARHKNKGLEMSSAMMELFGGGGSTSPAPSKRENPADAPSDRVVSNAKLSQPGPEWFEGFEQMDMTDIELPPDPNCPAEKVLRGEKSTPDFDSDWQEAKEDVLDPQSYPKSFNPAESLPGPDIGAGVDDEEEPEAEAQEMEEPQYESKVDEKDDDDNGSSSSKKGHPSEDGDSTRNGETPTDRRNSGAIEETADGESSAQSAAEKKNSGDDGNGGGGEMSILLVKNAQIVNDDAIFVADILIEDGIIQNVAPNLEAPEGAEVLDAAGKLALPAGIDVYTQVTDSSVDDLSTGCKSAIAGGTGTIVEVVRPRGAESVVSAVKRVKNQLEKSGISCHVALSVAITDFCEQEMSELVKNEGINSFVLDGVSLTDDKLLELFEHVKRLGALIRVVPENKSIVAMLEKKMLKLGVTGPEGFPQSRPESLEADRVSGVCVLGNLASCPISIVQVSSADSLAAIEKARASGALAHAEIASAAVTADGSALFSQDLRFASAHLTDVPLRRGAPDRMIGALSTQPLVVCTSGHRPVNSATRVAAKDFAIAQKGSTGAEERMAVVWERAVRSGRIDAMRFVAVTSTNAAKMFNMYPKKGRIAVGADADLVIWDASGKRVLESSRAQSSQENSMYDGLTVHSVVTATIVGGKIAYQNGEVREAPVAGGFLRLSPNSPYLFSMVGQRDKFANVERVEREASSQQQKPQQNGHHKNSGDFDRNRTKVMESSIDFGGSAANRPRNPPGGRTTGFW
  binding: binds

From article doi:10.1101/783837
